Data published in paper PMC9123307.
These are yes or no findings as the source states them, for the method shown. In cells and extracts the contact can be indirect. Some results given as binding are weak or reduced against the parent protein; the word gives no strength.

By UniProt entry, the sequences of proteins in these tests, tags left out.
UniProt P06837: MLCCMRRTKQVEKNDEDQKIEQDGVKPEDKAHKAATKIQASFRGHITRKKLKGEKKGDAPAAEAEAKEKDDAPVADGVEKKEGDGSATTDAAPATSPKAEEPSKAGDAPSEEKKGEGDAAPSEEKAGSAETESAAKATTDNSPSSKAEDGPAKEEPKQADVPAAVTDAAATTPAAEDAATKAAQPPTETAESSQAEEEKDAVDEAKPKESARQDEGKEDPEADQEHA

Target: T1, interleukin-4 receptor alpha (IL-4Rα) (mouse (endogenous in brain synaptosomes)) (UniProt P16382)
T1 sequence: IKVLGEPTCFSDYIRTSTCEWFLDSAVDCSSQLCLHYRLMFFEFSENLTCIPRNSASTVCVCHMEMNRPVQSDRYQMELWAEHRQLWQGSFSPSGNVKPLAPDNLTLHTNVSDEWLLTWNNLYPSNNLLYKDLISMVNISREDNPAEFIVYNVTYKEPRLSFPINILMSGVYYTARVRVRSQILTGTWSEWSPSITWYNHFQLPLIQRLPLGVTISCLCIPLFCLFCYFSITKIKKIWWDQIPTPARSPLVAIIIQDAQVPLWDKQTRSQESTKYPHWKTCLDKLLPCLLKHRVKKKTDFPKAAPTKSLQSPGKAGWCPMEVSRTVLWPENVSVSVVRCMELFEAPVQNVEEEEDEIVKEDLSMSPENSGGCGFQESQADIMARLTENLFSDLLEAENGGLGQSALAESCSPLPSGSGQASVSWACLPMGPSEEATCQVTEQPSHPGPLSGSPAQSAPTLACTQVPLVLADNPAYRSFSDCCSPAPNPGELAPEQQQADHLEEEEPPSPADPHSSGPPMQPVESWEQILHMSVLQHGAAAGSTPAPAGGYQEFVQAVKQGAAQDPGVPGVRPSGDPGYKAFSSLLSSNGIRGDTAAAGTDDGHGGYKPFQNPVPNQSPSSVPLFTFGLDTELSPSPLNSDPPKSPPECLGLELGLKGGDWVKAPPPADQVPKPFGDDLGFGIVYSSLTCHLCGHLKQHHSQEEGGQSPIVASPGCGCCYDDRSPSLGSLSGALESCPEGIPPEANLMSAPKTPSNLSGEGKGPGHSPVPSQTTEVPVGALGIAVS
Experiment: co-IP; synaptosome lysates (mouse brain) incubated with anti-IL-4Rα (BD Bioscience) or isotype IgG control on protein-A/G agarose beads overnight at 4°C in IP buffer (20 mM Tris-HCl pH 7.5, 150 mM NaCl, 5 mM EDTA, 1 µg/ml pepstatin); Western blot for GAP-43

binding: binds
Substance: Growth-associated protein-43 (GAP-43) (from UniProt P06837 1-227)
